Reference: article PMC9938007
Results are given in words; binding and its absence hold for the method and conditions named. Binding seen in cells or lysates may run through a third protein. Some entries that bind do so weakly or less than the wild type.

Chains of the proteins cited; added tags and fusions are not shown. Residues count along the entry.
UniProt P11182, residues 62-482: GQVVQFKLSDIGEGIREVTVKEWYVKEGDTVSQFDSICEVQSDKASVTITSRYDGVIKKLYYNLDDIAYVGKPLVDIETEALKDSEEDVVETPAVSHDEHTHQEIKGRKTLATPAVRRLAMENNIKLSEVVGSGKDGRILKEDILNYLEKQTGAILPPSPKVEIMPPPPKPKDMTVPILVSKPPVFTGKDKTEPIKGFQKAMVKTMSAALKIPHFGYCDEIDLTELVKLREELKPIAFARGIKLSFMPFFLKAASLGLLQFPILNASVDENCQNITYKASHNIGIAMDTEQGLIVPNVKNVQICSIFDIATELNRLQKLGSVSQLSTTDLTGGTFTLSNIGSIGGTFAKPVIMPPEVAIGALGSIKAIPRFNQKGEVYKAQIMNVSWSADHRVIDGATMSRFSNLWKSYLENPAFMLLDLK

What was measured:
[1] = molecular target: T1, full-length AMP deaminase 3 (AMPD3), human (HEK293) (human (endogenous in HEK293)) (UniProt Q01432); test: co-IP; anti-AMPD3 immunoprecipitation from HEK293 cells; immunoblotting
T1 sequence: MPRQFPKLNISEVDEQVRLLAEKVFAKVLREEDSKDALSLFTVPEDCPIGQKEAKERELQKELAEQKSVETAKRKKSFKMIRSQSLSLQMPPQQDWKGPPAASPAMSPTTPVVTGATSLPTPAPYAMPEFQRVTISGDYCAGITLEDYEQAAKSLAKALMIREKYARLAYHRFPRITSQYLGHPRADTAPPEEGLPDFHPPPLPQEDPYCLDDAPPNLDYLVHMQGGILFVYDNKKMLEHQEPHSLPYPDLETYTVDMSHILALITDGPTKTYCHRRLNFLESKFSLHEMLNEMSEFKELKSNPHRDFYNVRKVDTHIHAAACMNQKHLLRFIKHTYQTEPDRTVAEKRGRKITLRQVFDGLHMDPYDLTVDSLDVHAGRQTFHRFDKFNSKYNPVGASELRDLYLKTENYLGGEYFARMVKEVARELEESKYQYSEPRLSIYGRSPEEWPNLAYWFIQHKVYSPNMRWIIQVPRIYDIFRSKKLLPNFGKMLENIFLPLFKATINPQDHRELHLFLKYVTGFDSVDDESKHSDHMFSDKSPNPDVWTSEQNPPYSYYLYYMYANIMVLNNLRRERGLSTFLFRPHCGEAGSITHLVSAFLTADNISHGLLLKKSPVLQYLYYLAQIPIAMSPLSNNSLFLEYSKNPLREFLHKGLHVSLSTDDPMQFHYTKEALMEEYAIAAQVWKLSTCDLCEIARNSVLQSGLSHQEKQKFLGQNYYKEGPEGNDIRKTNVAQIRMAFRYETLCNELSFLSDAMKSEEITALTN

[2] = molecular target: T2, full-length AMP deaminase 3 (AMPD3), rat, 90 kDa (rat (endogenous in NRCMs, H9c2 cells and rat heart)) (UniProt O09178); test: co-IP; anti-AMPD3 immunoprecipitation of NRCM lysate (500 μg), rabbit control IgG as control; IP buffer 150 mM NaCl, 10 mM Tris-HCl pH 7.4, 1% Triton X-100, 0.5% NP-40, 4°C overnight; immunoblotting
T2 sequence: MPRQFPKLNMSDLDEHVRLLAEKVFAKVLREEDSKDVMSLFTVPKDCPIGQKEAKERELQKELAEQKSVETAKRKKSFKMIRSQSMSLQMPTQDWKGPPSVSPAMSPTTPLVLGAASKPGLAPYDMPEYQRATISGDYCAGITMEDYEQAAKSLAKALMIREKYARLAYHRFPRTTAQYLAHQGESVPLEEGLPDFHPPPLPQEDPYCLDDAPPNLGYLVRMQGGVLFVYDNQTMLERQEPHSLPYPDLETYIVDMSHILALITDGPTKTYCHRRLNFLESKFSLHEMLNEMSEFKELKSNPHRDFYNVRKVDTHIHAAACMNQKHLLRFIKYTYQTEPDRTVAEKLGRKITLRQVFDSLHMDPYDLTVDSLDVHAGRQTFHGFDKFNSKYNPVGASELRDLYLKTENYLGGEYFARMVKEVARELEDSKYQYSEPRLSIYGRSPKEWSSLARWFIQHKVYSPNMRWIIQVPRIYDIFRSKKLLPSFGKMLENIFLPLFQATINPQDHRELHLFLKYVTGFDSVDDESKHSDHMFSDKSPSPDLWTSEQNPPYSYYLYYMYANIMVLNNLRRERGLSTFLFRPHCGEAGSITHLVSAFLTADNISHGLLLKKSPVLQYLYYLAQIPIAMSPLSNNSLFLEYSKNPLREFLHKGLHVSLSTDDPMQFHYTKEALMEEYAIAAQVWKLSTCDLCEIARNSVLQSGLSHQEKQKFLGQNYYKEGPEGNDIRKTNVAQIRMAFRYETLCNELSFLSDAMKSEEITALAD

[3] = molecular target: T2, full-length AMP deaminase 3 (AMPD3), rat, 90 kDa (rat (endogenous in NRCMs, H9c2 cells and rat heart)); test: co-IP; anti-AMPD3 immunoprecipitation of the ER and cytosolic fractions of LETO and OLETF rat hearts; immunoblotting
[4] = molecular target: T2, full-length AMP deaminase 3 (AMPD3), rat, 90 kDa (rat (endogenous in NRCMs, H9c2 cells and rat heart)); test: co-IP; anti-AMPD3 immunoprecipitation of lysate of H9c2 cardiomyoblasts with or without E1α knocked down (siRNA); immunoblotting

| Molecule | binding [1] | binding [2] | binding [3] | binding [4] |
| --- | --- | --- | --- | --- |
| E2 subunit of branched-chain α-keto acid dehydrogenase (BCKDH), human (HEK293) (from UniProt P11182 62-482) | binds | – | – | – |
| E1α subunit of branched-chain α-keto acid dehydrogenase (BCKDH), rat (protein, UniProt P11960 42-441) PSLDDKPQFPGASAEFVDKLEFIQPNVISGIPIYRVMDRQGQIINPSEDPHLPQEEVLKLYRSMTLLNTMDRILYESQRQGRISFYMTNYGEEGTHVGSAAALERTDLVFGQYREAGVLMYRDYPLELFMAQCYGNVSDPGKGRQMPVHYGCKERHFVTISSPLATQIPQAVGAAYAAKRANANQIVICYFGEGAASEGDAHAGFNFAATLECPIIFFCRNNGYAISTPTSEQYRGDGIAARGPGYGIMSIRVDGNDVFAVYNATKEARRRAVAENQPFLIEAMTYRIGHHSTSDDSSAYRSVDEVNYWDKQDHPISRLRQYLLNQGWWDEEQEKAWRKQSRKKVMEAFEQAERKLKPNPSLLFSDVYQEMPAQLRRQQESLARHLQTYGEHYPLDHFDK | – | binds | binds | binds |
| E1α subunit of branched-chain α-keto acid dehydrogenase (BCKDH), human (HEK293) (protein, UniProt P12694 46-445) SSLDDKPQFPGASAEFIDKLEFIQPNVISGIPIYRVMDRQGQIINPSEDPHLPKEKVLKLYKSMTLLNTMDRILYESQRQGRISFYMTNYGEEGTHVGSAAALDNTDLVFGQYREAGVLMYRDYPLELFMAQCYGNISDLGKGRQMPVHYGCKERHFVTISSPLATQIPQAVGAAYAAKRANANRVVICYFGEGAASEGDAHAGFNFAATLECPIIFFCRNNGYAISTPTSEQYRGDGIAARGPGYGIMSIRVDGNDVFAVYNATKEARRRAVAENQPFLIEAMTYRIGHHSTSDDSSAYRSVDEVNYWDKQDHPISRLRHYLLSQGWWDEEQEKAWRKQSRRKVMEAFEQAERKPKPNPNLLFSDVYQEMPAQLRKQQESLARHLQTYGEHYPLDHFDK | binds | – | – | – |
